Patent US20220340642A1
No constants are given. Whether binding was seen depends on the method and setting. Some entries that bind do so weakly or less than the wild type. Sequences can lack the tags named with a protein.

Sequences of proteins named here, by UniProt entry; tags and fusion partners are left off. A change or cut given only in a name is not applied to a line headed by its entry.
UniProt P63308: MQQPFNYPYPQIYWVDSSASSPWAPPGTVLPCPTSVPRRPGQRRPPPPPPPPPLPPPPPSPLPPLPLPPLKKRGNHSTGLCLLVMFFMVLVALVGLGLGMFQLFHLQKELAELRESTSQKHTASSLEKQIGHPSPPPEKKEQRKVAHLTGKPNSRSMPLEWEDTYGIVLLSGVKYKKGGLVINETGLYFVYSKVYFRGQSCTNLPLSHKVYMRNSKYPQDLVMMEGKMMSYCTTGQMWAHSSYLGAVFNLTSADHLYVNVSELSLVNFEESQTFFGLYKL
UniProt Q5UBV8: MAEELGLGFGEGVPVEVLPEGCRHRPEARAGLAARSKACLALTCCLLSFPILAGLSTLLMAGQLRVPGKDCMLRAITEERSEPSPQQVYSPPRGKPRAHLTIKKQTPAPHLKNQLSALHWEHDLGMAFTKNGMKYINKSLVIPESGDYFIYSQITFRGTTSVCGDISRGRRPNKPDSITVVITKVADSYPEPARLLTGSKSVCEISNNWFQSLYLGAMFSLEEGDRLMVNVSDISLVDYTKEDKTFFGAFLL
UniProt P41047: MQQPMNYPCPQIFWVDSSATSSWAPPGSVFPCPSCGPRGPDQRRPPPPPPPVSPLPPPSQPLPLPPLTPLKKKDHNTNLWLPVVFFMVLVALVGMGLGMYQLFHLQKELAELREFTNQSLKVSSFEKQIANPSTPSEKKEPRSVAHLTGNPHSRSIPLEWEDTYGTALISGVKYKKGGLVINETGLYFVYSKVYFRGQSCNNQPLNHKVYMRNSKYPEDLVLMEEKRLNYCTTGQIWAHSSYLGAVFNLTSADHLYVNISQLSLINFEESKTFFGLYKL
UniProt P48023: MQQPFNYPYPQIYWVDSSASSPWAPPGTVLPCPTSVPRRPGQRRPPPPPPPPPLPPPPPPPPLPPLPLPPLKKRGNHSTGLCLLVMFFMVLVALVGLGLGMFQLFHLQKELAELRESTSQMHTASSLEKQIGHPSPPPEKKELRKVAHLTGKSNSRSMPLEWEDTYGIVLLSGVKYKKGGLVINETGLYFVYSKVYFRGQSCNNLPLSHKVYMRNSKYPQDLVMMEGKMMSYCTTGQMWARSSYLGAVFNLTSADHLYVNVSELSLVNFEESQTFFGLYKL

Key:
Assay in all cases: SPR, binder captured
[1] = molecular target: soluble recombinant of cynomolgus monkey LIGHT (His10, GS linker, Asp74-Val240) (cynomolgus monkey)
[2] = molecular target: soluble recombinant of cynomolgus monkey FasL (His6, Pro133-Leu280) (cynomolgus monkey) (UniProt P63308)
[3] = molecular target: T1, soluble recombinant of mouse TL1A (His6, GS linker, Ile94-Leu270) (mouse) (UniProt Q5UBV8)
T1 sequence: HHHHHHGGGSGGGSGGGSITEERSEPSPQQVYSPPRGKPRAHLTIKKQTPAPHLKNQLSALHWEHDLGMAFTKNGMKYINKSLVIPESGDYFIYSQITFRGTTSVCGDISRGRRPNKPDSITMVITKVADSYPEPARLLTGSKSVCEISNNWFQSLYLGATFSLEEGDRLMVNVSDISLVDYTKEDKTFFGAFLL

[4] = molecular target: soluble recombinant of human LIGHT (His10, GS linker, Asp74-Val240) (human)
[5] = molecular target: soluble recombinant of mouse FasL (His6, Pro132-Leu279) (mouse) (UniProt P41047)
[6] = molecular target: soluble recombinant of human FasL (His6, Pro134-Leu281) (human) (UniProt P48023)
[7] = molecular target: T2, soluble recombinant of cynomolgus monkey TL1A (His6, GS linker, Leu72-Leu251) (cynomolgus monkey)
T2 sequence: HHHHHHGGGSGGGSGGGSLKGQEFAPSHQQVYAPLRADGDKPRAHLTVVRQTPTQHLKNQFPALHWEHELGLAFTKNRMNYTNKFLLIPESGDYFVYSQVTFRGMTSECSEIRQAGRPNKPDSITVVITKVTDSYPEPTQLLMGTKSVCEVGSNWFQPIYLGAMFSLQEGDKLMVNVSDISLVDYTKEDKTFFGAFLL

Measured: binding

B1: DcR3 FL-Fc (R&D Systems, Inc.) (Fc fusion, not shown: a dimerising Fc or GST)
chain: VAETPTYPWRDAETGERLVCAQCPPGTFVQRPCRRDSPTTCGPCPPRHYTQFWNYLERCRYCNVLCGEREEEARACHATHNRACRCRTGFFAHAGFCLEHASCPPGAGVIAPGTPSQNTQCQPCPPGTFSASSSSSEQCQPHRNCTALGLALNVPGSSSHDTLCTSCTGFPLSTRVPGAEECERAVIDFVAFQDISIKRLQRLLQALEAPEGWGPTPRAGRAALQLKLRRRLTELLGAQDGALLVRLLQALRVARMPGLERSVRERFLPVHIEGRMD
binds: [1] | [2] | [3] | [4] | [5] | [6] | [7]
